36 targets from the supplement of paper PMC12819154, “High-throughput peptide-centric local stability assay extends protein–ligand identification to membrane proteins, tissues and bacteria” (Nature Structural & Molecular Biology, 2025) can be followed below.

The chains behind the UniProt entries cited, without tags or fusion partners. Where a name states a change or a piece, a line headed by the entry shows the natural chain unless it says otherwise.
UniProt Q99LP6: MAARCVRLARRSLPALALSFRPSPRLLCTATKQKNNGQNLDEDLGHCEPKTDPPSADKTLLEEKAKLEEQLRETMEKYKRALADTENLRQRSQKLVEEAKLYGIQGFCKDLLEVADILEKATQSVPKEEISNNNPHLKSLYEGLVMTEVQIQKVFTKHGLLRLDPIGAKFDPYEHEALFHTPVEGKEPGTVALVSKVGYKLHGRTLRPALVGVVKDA
UniProt Q9CR37: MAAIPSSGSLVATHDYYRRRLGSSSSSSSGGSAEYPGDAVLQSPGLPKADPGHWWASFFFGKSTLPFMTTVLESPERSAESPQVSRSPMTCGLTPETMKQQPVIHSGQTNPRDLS
UniProt Q99LJ0: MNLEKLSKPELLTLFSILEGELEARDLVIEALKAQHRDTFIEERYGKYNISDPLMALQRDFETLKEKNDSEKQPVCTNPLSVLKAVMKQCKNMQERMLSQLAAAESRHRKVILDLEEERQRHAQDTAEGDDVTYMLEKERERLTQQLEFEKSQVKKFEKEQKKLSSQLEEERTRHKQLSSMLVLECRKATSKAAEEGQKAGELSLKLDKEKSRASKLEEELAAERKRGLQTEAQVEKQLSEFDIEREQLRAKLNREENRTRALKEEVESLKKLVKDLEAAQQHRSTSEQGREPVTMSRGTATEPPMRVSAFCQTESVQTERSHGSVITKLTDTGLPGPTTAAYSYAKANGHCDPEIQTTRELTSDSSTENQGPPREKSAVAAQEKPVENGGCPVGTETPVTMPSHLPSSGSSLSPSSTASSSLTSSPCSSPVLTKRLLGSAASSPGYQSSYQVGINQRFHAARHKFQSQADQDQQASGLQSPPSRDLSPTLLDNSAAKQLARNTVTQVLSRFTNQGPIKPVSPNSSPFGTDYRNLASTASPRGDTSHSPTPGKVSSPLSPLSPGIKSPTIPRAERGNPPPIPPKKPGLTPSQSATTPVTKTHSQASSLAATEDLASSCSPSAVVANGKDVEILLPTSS
UniProt Q99JT9: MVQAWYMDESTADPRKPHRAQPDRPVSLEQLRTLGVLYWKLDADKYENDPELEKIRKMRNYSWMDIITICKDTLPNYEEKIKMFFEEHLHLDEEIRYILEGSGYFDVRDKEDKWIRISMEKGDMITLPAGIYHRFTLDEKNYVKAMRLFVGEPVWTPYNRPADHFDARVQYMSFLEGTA
UniProt Q99L02, whole entry: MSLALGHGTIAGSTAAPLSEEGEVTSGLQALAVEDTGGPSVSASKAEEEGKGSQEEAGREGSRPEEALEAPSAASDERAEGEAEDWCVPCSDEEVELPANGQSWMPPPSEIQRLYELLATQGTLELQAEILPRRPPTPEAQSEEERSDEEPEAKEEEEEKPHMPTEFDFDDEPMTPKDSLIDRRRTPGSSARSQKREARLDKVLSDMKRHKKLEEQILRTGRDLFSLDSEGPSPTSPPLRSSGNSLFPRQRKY
UniProt Q9CPT5: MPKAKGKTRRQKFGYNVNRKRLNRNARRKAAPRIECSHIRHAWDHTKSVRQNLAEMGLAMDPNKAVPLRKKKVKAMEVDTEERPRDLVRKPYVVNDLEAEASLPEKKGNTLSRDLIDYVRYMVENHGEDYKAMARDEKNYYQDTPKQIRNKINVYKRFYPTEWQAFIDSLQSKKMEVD
UniProt Q9CQE1: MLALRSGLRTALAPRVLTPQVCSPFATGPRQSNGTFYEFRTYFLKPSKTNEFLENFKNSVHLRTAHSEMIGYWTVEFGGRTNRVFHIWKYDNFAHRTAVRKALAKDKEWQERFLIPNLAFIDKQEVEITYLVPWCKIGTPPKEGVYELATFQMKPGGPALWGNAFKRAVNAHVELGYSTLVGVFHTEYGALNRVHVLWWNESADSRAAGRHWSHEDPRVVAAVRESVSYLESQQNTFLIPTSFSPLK
UniProt Q9CXE7: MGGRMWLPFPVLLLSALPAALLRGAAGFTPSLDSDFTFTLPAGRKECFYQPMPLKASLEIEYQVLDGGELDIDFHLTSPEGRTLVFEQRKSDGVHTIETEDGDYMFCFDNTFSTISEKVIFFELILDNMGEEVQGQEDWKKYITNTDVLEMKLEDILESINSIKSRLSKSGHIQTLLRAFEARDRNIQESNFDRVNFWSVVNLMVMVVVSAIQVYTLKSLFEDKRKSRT
UniProt Q9CR35, whole entry: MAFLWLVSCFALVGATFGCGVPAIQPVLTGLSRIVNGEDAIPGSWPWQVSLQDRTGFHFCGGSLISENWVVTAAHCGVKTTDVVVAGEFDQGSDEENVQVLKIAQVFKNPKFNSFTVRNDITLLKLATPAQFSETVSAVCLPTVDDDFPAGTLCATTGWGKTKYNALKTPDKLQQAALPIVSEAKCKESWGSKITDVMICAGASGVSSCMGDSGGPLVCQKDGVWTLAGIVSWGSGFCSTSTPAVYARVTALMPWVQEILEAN
UniProt Q99LR1: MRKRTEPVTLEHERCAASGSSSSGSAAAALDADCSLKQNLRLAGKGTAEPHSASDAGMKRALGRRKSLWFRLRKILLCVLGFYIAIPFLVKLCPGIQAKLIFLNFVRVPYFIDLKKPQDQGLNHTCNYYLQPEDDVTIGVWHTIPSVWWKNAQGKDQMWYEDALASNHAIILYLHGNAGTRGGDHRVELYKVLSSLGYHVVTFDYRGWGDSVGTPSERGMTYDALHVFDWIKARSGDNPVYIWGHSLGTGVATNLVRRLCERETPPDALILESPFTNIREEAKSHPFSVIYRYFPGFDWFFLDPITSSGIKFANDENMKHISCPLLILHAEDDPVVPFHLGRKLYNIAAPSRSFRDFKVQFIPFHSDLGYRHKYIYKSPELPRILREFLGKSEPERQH
UniProt Q9CQM5: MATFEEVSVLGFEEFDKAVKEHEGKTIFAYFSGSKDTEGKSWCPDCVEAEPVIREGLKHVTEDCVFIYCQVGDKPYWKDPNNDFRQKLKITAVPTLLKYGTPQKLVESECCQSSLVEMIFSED
UniProt Q99KP6: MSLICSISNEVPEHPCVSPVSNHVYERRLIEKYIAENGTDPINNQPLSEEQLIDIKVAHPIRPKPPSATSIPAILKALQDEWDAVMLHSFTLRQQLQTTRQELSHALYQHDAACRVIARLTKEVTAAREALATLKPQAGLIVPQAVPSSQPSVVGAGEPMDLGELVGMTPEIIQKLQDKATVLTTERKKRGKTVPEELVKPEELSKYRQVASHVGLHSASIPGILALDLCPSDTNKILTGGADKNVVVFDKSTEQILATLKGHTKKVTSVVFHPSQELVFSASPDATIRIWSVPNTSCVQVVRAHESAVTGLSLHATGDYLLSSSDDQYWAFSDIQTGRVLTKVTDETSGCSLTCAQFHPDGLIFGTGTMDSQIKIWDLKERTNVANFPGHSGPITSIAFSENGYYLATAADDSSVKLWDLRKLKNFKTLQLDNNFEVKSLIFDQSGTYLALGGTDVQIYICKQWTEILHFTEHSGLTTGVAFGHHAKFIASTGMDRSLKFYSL
UniProt Q99L20: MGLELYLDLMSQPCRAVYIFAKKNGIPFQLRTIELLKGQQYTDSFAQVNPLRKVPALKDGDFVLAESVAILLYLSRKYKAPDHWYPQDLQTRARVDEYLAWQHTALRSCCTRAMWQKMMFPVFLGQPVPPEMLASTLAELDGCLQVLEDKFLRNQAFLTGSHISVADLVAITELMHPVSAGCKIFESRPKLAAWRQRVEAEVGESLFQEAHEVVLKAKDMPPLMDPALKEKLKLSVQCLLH
UniProt Q99NF1: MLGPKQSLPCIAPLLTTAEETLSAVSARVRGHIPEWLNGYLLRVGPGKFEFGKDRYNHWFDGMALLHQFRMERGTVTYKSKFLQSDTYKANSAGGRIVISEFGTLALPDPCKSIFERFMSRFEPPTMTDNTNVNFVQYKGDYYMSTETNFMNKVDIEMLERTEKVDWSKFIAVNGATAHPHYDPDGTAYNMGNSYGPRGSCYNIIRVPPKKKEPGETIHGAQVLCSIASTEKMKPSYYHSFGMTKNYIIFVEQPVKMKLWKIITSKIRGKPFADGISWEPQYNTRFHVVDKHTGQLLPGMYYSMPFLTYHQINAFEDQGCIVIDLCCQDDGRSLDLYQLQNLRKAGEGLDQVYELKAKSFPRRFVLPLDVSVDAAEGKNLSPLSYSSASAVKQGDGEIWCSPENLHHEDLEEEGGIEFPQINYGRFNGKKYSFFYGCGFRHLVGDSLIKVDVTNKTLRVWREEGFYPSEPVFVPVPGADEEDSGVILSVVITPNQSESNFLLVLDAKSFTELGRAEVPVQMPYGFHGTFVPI
UniProt Q9CRA7: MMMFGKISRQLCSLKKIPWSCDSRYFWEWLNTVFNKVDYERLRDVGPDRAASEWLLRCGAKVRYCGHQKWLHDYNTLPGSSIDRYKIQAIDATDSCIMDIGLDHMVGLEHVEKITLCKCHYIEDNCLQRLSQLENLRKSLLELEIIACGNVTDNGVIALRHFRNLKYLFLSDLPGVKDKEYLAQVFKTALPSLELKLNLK
UniProt Q99JY8: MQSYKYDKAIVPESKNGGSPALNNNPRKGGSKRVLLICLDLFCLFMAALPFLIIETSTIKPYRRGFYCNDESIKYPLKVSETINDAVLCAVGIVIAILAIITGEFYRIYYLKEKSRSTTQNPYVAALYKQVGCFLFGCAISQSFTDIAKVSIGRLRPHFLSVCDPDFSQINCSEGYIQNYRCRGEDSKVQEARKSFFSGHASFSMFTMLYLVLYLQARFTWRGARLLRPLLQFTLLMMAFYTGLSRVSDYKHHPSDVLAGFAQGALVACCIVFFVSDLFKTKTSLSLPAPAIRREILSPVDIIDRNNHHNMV
UniProt Q99KG5: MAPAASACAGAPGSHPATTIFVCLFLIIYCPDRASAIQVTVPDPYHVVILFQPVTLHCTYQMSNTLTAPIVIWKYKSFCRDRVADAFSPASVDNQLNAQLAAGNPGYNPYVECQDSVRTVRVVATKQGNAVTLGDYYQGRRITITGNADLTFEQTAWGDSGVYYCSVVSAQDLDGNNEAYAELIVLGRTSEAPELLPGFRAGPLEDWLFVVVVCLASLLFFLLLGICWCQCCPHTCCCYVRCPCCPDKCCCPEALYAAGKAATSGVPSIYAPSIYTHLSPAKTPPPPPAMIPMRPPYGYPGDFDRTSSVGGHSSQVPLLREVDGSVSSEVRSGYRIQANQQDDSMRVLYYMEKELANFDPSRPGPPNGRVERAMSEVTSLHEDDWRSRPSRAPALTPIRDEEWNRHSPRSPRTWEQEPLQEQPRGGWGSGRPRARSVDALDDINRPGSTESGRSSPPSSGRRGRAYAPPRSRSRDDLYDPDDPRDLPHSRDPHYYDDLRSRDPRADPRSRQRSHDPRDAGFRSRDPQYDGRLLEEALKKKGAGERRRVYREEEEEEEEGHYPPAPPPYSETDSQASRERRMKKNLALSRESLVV
UniProt Q99KS2: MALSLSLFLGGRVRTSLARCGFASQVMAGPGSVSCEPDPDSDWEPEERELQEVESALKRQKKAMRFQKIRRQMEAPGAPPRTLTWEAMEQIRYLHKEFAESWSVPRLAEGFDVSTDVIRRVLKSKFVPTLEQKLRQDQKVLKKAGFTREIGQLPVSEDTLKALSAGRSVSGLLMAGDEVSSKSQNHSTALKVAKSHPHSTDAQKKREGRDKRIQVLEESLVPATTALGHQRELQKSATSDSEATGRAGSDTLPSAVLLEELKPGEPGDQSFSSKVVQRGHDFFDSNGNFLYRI
UniProt Q99LF4: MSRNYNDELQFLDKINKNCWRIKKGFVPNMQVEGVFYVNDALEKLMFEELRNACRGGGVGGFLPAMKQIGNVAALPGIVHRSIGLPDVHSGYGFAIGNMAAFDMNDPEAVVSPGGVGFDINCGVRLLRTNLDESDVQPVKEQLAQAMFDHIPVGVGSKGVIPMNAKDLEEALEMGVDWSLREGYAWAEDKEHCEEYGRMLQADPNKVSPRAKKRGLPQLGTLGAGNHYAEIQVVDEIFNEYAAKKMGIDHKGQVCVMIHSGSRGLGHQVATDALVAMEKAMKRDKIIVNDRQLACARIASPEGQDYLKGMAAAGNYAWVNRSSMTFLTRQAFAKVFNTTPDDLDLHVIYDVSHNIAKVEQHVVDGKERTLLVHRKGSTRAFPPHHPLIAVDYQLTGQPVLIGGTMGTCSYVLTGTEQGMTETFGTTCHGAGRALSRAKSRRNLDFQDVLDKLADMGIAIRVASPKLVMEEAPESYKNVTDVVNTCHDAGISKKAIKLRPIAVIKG
UniProt Q9CWM4, whole entry: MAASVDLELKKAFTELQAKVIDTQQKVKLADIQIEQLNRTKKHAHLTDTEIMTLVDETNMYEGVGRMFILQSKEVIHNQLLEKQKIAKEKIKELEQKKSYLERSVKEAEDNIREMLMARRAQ
UniProt Q9CQ91, whole entry: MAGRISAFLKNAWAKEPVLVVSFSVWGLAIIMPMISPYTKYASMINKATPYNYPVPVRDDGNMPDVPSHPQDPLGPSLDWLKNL
UniProt Q9CRB8: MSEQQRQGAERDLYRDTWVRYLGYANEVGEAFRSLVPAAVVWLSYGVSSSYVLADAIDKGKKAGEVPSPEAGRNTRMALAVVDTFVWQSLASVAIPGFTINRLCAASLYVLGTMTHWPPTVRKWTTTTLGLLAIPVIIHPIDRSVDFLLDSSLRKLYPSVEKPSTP
UniProt Q9CPU2: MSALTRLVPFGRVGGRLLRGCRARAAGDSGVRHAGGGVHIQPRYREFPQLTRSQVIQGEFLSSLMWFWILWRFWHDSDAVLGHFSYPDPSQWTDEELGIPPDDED

The list shows a part of the results. Small differences around the control level are noise.

Compound in the assay: CN[C@@H]1C[C@H]2O[C@@](C)([C@@H]1OC)n1c3ccccc3c3c4c(c5c6ccccc6n2c5c31)C(=O)NC4 [staurosporine]
Put plainly: log2 fold change of pooled soluble protein (PISA), ligand vs vehicle (log2 ratio); higher = more thermally stabilized. Particulars: ligand concentration: 20 uM; assay format: PISA pool 52.9/55.5/58.6 C.
Turning to UniProt Q99LP6, the “log2 fold change of pooled soluble protein” value (“log2 fold change” below) was found to be 0.0268. For the target UniProt Q9CR37, the “log2 fold change” value was -0.313. In the case of UniProt Q99LJ0, the “log2 fold change” value is 0.0373. With UniProt Q9CQI7, the “log2 fold change” value came out at 0.0269.

For the target UniProt Q99JT9, the “log2 fold change” value is 0.0824. As to UniProt Q99L02, the “log2 fold change” value was -0.417. As to UniProt Q9CPT5, the “log2 fold change” value was determined as 0.111. Then UniProt Q9CQE1, with -0.276; and UniProt Q9CXE7, with 0.0264; and UniProt Q9CR35, with -0.0259. As for UniProt Q99LR1, the “log2 fold change” value is -0.0822.

For the target UniProt Q9CQE7, the “log2 fold change” value is -0.155.

On to UniProt Q99K30, for which the “log2 fold change” value was 0.0487. UniProt Q9CQM5: the “log2 fold change” value was -0.00994. Take UniProt Q99KP6: the “log2 fold change” value is -0.0103. As for UniProt Q99L20, the “log2 fold change” value was -0.036. Take UniProt Q9CQR4: the “log2 fold change” value is -0.0378. UniProt Q99NF1: the “log2 fold change” value worked out at 0.218. Then UniProt Q9CRA7, with -0.146.

On to UniProt Q99JY8, for which the “log2 fold change” value stood at 0.0198. Regarding UniProt Q99MZ3, the “log2 fold change” value is -0.0927. Then UniProt Q99MR6, with 0.0647.

For the target UniProt Q99KG5, the “log2 fold change” value was determined as 0.176.

As for UniProt Q9CX86, the “log2 fold change” value came to 0.266.

With UniProt Q99LB7, the “log2 fold change” value was -0.0745.

As to UniProt Q99KS2, the “log2 fold change” value was -0.297. With UniProt Q99MP8 the figure was 0.0492. Regarding UniProt Q99LF4, the “log2 fold change” value was -0.0948. Then UniProt Q9CWM4, with -0.396. Regarding UniProt Q9CQY5, the “log2 fold change” value was 0.00499.

As for UniProt Q99L27, the “log2 fold change” value is -0.0377. Then UniProt Q9CQR2, with -0.0561; and UniProt Q9CQ91, with 0.044. Turning to UniProt Q9CRB8, the “log2 fold change” value was -0.0671. With UniProt Q9CPU2, the “log2 fold change” value was -0.0257. With UniProt Q9CW46 the figure was 0.127.
